# In patent US11179420B2, “Method for treating a disease, comprising administering mesenchymal stem cells or culture supernatant thereof to a subject” (ROHTO PHARMACEUTICAL CO., LTD., priority 2016, dated 2021):
# For at least one compound, name, drawing or mass did not settle the structure.
# Tested on: mouse macrophage cell line Raw264.7
# Experiment: Co-culture with LPS-stimulated macrophages, IL-6 ELISA
# Format: cell-based
# Conditions: 100 nM DEX, positive control; compared with the MSC co-culture; FIG. 4
smiles,measurement,value
C[C@@H]1C[C@H]2[C@@H]3CCC4=CC(=O)C=C[C@]4(C)[C@@]3(F)[C@@H](O)C[C@]2(C)[C@@]1(O)C(=O)CO [dexamethasone],inhibitory effect on IL-6 production by Raw264.7,substantially the same
